# Laboratory results published in patent US6294372.
# Tested on: Integration host factor (IHF, HimA/HimD heterodimer)
# Test: EMSA
# Conditions: 50 and 100 pmol IHF; 75 mM KCl, pH 8.0, 0 C; purified native protein; label: 32P
sequence,measurement,value
AGATCTTTTACGCCGATTTGTAAGTGGTTGTTTTTTTAGTGTGTTTTTTATTTACCTGTCGCATCCAGGATGAAAAAACGTTGTCGCATCCTGGATGCGACAACACGCAACAAGGTGTTGCACAGATGTGTCATGATGGCTTAGATTTGAACCAACGTTAGTGCATGGGATTTTCAGAGGGAAAAAATCATGTTTATTGATTCAGAAAAACGA (double strand),binding result,binds
